Test results from patent publication US11237155B2, “Screening methods using olfactory receptors and novel compounds identified using the same” (MARS, INCORPORATED, priority 2016, dated 2022).

Test system: Cat OR5A1
Assay: CNG chAMPion assay, OR_9 (OR5A1), cat ortholog
Assay type: cell-based
Details: cat OR5A1, phase 3
Excerpt: This example refers to the functional expression of different feline and canine olfactory receptors (ORs). 20 OR sequences were selected, where 10 sequences have feline origins and the remaining 10 have canine origins. These ORs were subcloned into a modified expression vector suitable for the transient, functional expression of ORs. The transiently expressed receptors were then stimulated with various concentrations of different odorants aiming to deorphanize the feline and canine ORs. […] Functional expression of the different OR sets were transient in reporter cell line A or B. The transiently transfected ORs were stimulated with 3 concentrations (n=4) of different odorants (at least 3).
chAMPion (CNG channel) assay. […]
Twenty-four hours later, the cell medium was removed manually and cells were incubated in 20 μL/well coelenterazine (11 μM) in Tyrode buffer with 0 mM calcium for 3.5 h at 37° C. Plates were then read in a luminescence plate reader (FLIPR^TETRA, Molecular Devices) with the following camera settings: exposure time: 0.533 s, maximum gain. Luminescence was recorded for 1 min after addition of 10 μL/well compounds (3× solutions prepared in Tyrode buffer with 0 mM calcium), followed by an incubation period of 30 min at 37° C. Luminescence was again recorded for 1 min after addition of 20 μL/well Tyrode buffer with 10 mM CaCl2. […]

Structure (SMILES): CC(C)CC(=O)O [isovaleric acid, Isovaleric acid]
- receptor response (dose-response, fold change): weaker responses
